Results reported in patent US20050123553A1, “Amyloid beta-peptide and methods of use” (priority 2003, published 2005).
Like-named read-outs stand apart in the source and are kept apart here. For some of these results: Part of at least one peptide drawing is inferred or uncertain, most often the ends. Some of these results come from one statement about several compounds together. Ends that are not written are not given here.

By UniProt entry, the sequences of proteins in these tests, tags left out. Where a name states a change or a piece, a line headed by the entry shows the natural chain unless it says otherwise.
UniProt P05067: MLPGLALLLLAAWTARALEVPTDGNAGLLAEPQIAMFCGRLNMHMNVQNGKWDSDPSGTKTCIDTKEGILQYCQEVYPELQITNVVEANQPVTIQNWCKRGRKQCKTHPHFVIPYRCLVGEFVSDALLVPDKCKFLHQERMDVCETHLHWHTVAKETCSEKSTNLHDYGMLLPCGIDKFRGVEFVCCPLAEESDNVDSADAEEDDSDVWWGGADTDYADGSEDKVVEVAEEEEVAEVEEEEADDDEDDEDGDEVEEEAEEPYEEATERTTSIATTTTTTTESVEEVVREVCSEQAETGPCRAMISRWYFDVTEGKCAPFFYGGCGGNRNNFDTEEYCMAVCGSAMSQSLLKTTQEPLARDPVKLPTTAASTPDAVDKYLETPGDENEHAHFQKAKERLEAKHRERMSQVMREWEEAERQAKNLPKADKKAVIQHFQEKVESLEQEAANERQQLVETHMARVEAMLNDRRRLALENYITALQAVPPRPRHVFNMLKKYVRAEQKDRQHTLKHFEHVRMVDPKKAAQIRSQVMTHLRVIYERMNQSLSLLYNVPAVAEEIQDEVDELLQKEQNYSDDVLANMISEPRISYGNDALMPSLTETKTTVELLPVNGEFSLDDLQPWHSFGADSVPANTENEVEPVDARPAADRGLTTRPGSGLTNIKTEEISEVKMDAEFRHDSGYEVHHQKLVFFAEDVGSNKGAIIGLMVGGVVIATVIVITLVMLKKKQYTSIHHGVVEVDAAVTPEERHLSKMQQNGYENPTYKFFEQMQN

Legend:
[1] = test system: Aβ16-30-specific T cells; experiment: Proliferation of Aβ16-30-specific T cells with alanine/glycine-substituted peptides; type: cell-based, human; conditions: for Effect on T-cell proliferation: versus Aβ16-30
From the text: Because the T-cell epitopes were most frequently localized to Aβ16-30, we further mapped this epitope for each of its constituent amino acids by using alanine-substituted peptides in the T-cell proliferation assay (the naturally occurring alanines at positions 21 and 30 were changed to glycines). […] Substitution of lysine-16, alanine-21, serine-26 or aspargine-27 increased T-cell proliferation by more than 2-fold (Table 4).
In this experiment, T cells specific to Aβ16-30 were stimulated in the presence of alanine/glycine substituted peptides and autologous PBMCs. T-cell proliferation was measured by [^3H]-thymidine incorporation 72 hr after stimulation. Numbers represent average cpm of each antigen concentration tested (average cpm in the absence of antigen was 911).
T-cell lines were then supplemented with 10 μg/ml IL-2 after 48 hours and every 2 days thereafter until they were completely resting. T-cell proliferation was measured 72 hours after stimulation following a 12 hr incubation with [^3H]-thymidine. Supernatants were collected 48 hr after T-cell stimulation, and antigen-induced cytokine production was measured by sandwich ELISA. Recommended pairs of antibodies (coating and detecting) for IL-10 (R&D, Minneapolis, Minn.), INF-γ. Endogen, Woburn, Mass.), IL-13 (PharMingen, (San Diego, Calif.), and TGF-β (Promega, Madison, Wis.) were used according to the manufacturer's instructions. Surface and intracellular staining was performed on Aβ-reactive T-cells after stimulation. All antibodies were purchased from BD Biosciences (San Diego, Calif.) and staining was performed according to the manufacturer's instructions.

[2] = test system: popliteal draining lymph nodes (PLN) T cells; experiment: Lymph node T-cell proliferation after immunization of mice with Aβ in CFA; type: cell-based, mouse
[3] = test system: spleen-derived T cells; experiment: Peripheral immune responses after Aβ immunization (spleen T-cell proliferation, cytokines); type: cell-based, mouse; conditions: after Aβ10-24 immunization
[4] = test system: Aβ binding antibodies; experiment: Serum anti-Aβ antibodies after immunization (ELISA); type: in vivo, mouse; conditions: immunized APP-tg mice
[5] = test system: APP/IFN-γ mice; experiment: Intensity of Aβ staining in hippocampus submeningeal areas after immunization; type: in vivo, mouse; conditions: between days 12 and 20 after a single immunization, n=5/group
[6] = test system: APP/IFN-g Tg mice
[7] = App Tg, B6-SJL-F1, 12 days after imm., hippocampus meningeal tissue
[8] = App/INF-g Tg, B6-SJL-F1, 12 days after imm.
[9] = App/INF-g Tg, B6-SJL-F1, 20 days after imm.
[10] = App/INF-g Tg, B6-SJL-F1, 30 days after imm.
[11] = App/INF-g Tg, B6-SJL-F1, 60 days after imm.
[12] = INF-g Tg, B6-SJL-F1, 12 days after imm.

Ala 21 Gly: Aβ16-30 peptide with alanine 21 changed to glycine (KLVFFGEDVGSNKGA; Amyloid-beta protein 42; UniProt P05067 687-701, looked up, variant A21G)
increase of T-cell proliferation by substitution [1]: more than 2 fold | Effect on T-cell proliferation [1]: ↑↑ (increased T-cell proliferation by more than 2-fold)

Asn 27 Ala: Aβ16-30 peptide with asparagine-27 substituted by alanine (KLVFFAEDVGSAKGA; Amyloid-beta protein 42; UniProt P05067 687-701, looked up, variant N27A)
increase of T-cell proliferation by substitution [1]: more than 2 fold | Effect on T-cell proliferation [1]: ↑↑ (increased T-cell proliferation by more than 2-fold)

Lys 16 Ala: Aβ16-30 peptide with lysine-16 substituted by alanine (ALVFFAEDVGSNKGA; Amyloid-beta protein 42; UniProt P05067 687-701, looked up, variant K16A)
increase of T-cell proliferation by substitution [1]: more than 2 fold | Effect on T-cell proliferation [1]: ↑↑ (increased T-cell proliferation by more than 2-fold)

Ser 26 Ala: Aβ16-30 peptide with serine-26 substituted by alanine (KLVFFAEDVGANKGA; Amyloid-beta protein 42; UniProt P05067 687-701, looked up, variant S26A)
increase of T-cell proliferation by substitution [1]: more than 2 fold | Effect on T-cell proliferation [1]: ↑↑ (increased T-cell proliferation by more than 2-fold)

YEVHHQKLVFFAEDV [Aβ10-24]
response compared with that induced by Aβ1-42 ([2]; 10-24 in SJL, 16-30 in C57BL6 mice): equivalent | T-cell proliferation across the peptide series Aβ7-21 to Aβ10-24 ([2]; SJL mice immunized with rodent Aβ1-42): gradual increase | T-cell proliferation with overlapping peptides ([2]; SJL-derived lymphocyte cultures, immunized with human Aβ1-42): induced T-cell proliferation | IFN-γ secreted by Aβ-specific T cells [3]: High amounts | IL-4 and IL-10 secreted by Aβ-specific T cells [3]: low amounts | Aβ binding antibodies in serum (IgG1, IgG2a, IgG2b) [4]: no Aβ binding antibodies | mean intensity of Aβ staining in hippocampus submeningeal areas [5]: 36.8±6.3 | CD4 (cells/mm^2 ± SEM) [6, 7]: 0 cells/mm^2 | CD11b (cells/mm^2 ± SEM) [6, 7]: 0 cells/mm^2 | CD4 (cells/mm^2 ± SEM) [6, 8]: 689 cells/mm^2 | CD11b (cells/mm^2 ± SEM) [6, 8]: 1111 cells/mm^2 | CD4 (cells/mm^2 ± SEM) [6, 9]: 400 cells/mm^2 | CD11b (cells/mm^2 ± SEM) [6, 9]: 1022 cells/mm^2 | CD4 (cells/mm^2 ± SEM) [6, 10]: 400 cells/mm^2 | CD11b (cells/mm^2 ± SEM) [6, 10]: 289 cells/mm^2 | CD4 (cells/mm^2 ± SEM) [6, 11]: 0 cells/mm^2 | CD11b (cells/mm^2 ± SEM) [6, 11]: 0 cells/mm^2 | CD4 (cells/mm^2 ± SEM) [6, 12]: 13 cells/mm^2 | CD11b (cells/mm^2 ± SEM) [6, 12]: 148 cells/mm^2 | duration of the proinflammatory response ([6]; after immunization): about 30 days
